Structures can show the parent of a compound that is named as a salt. The list shows a part of the results. Rule as the data show it: active = 2.5 or more and inactive = the rest. Most values lie within the scatter of the assay; repeated measurements hardly agree.
System: Lgr5 (MarsCy1-Lgr5-EGFP, U2OS)
Test: cell-surface Lgr5 expression (SCi1 fluorescence, background-subtracted) relative to WT control (fold of WT control); higher = more Lgr5 at the plasma membrane
Conditions: U2OS MarsCy1-Lgr5-EGFP stable; treatment time: overnight; library: Prestwick; 20 µM

| Compound | cell-surface Lgr5 expression |
| --- | --- |
| CN(C/C=C/c1ccccc1)Cc1cccc2ccccc12 [Naftifine hydrochloride] | inactive: 1.88 |
| C[C@@H]1CC[C@@]2(OC1)O[C@H]1C[C@H]3[C@@H]4CC[C@H]5C[C@@H](O)CC[C@]5(C)[C@H]4CC(=O)[C@]3(C)[C@H]1[C@@H]2C [Hecogenin] | inactive: 2.04 |
| CC(C)n1c(/C=C/C(O)CC(O)CC(=O)O)c(-c2ccc(F)cc2)c2ccccc21 (stereo not given) [Fluvastatin sodium salt] | inactive: 1.59 |
| CNC(=O)c1c(I)c(C(=O)NCC(=O)Nc2c(I)c(C(=O)O)c(I)c(C(=O)NCCO)c2I)c(I)c(N(C)C(C)=O)c1I [Ioxaglic acid] | inactive: 1.02 |
| CCCCNc1cc(C(=O)O)cc(S(N)(=O)=O)c1Oc1ccccc1 [Bumetanide] | inactive: 0.733 |
| CC(=O)Oc1ccccc1C(=O)Oc1ccccc1C(=O)O [Acetylsalicylsalicylic acid] | inactive: 1.11 |
| CNC[C@H](O)[C@@H](O)[C@H](O)[C@H](O)CO [Meglumine] | active: 4.6 |
| Nc1ccc(S(=O)(=O)Nc2cnc3ccccc3n2)cc1 [Sulfaquinoxaline sodium salt] | inactive: 1.51 |
| COc1ccc(C[C@H](N)C(=O)N[C@H]2[C@@H](O)[C@H](n3cnc4c(N(C)C)ncnc43)O[C@@H]2CO)cc1 [Puromycin dihydrochloride] | inactive: 0.458 |
| Cc1ccnc(NS(=O)(=O)c2ccc(N)cc2)n1 [Sulfamerazine] | inactive: 1.63 |
| C[C@H]1NC(=O)NC1=O [Methylhydantoin-5-(D)] | inactive: 1.77 |
| N=C(N)NCc1cccc(I)c1 [Iobenguane sulfate] | inactive: 1.78 |
| CC(=O)O[C@H]1C[C@@]2(C)[C@@H](C[C@@H](O)[C@H]3[C@@]4(C)CC[C@@H](O)[C@@H](C)[C@@H]4CC[C@@]32C)/C1=C(\CCC=C(C)C)C(=O)O [Fusidic acid sodium salt] | inactive: 0.614 |
| CN(C)CCn1nnnc1SCC1=C(C(=O)O)N2C(=O)[C@@H](NC(=O)Cc3csc(N)n3)[C@H]2SC1 [Cefotiam hydrochloride] | inactive: 2.34 |
| CC(C)=CCC/C(C)=C/CC/C(C)=C/CC/C(C)=C/CC/C(C)=C/CC/C(C)=C/CC1=C(C)C(=O)c2ccccc2C1=O [Vitamin K2] | inactive: 1.04 |
| CCN(CC)CCOC(=O)c1ccc(N)cc1 [Procaine hydrochloride] | inactive: 1.36 |
| CC[C@H](C)C(=O)O[C@H]1C[C@@H](C)C=C2C=C[C@H](C)[C@H](CC[C@@H]3C[C@@H](O)CC(=O)O3)[C@H]21 [Lovastatin] | inactive: 1.59 |
| Cc1c(C)c2c(c(C)c1O)CCC(C)(C(=O)O)O2 (stereo not given) [Trolox] | inactive: 1.7 |
| Cc1c(O)c(=O)n(-c2ccccc2)n1C [Antipyrine, 4-hydroxy] | inactive: 1.12 |
| C[C@H]1[C@H](C)CC[C@]2(C(=O)O[C@@H]3O[C@H](CO[C@@H]4O[C@H](CO)[C@@H](O[C@@H]5O[C@H](C)[C@H](O)[C@@H](O)[C@H]5O)[C@H](O)[C@H]4O)[C@@H](O)[C@H](O)[C@H]3O)CC[C@]3(C)C(=CC[C@@H]4[C@@]5(C)C[C@@H](O)[C@H](O)[C@@](C)(CO)[C@@H]5CC[C@]43C)[C@H]12 [Asiaticoside] | inactive: 0.837 |

| Compound | cell-surface Lgr5 expression |
| --- | --- |
| CC(C)OC(=O)C(C)(C)Oc1ccc(C(=O)c2ccc(Cl)cc2)cc1 [Fenofibrate] | inactive: 1.38 |
| CN1CCCN=C1/C=C/c1cccc(O)c1 [Oxantel pamoate] | inactive: 1.01 |
| CC(N)CCCC(C)(C)O (stereo not given) [Heptaminol hydrochloride] | inactive: 1.44 |
| C[C@@H]1CCC[C@H](C)N1 [(cis-) Nanophine] | inactive: 2.2 |
| CC1(C)S[C@@H]2[C@H](NC(=O)C3(N)CCCCC3)C(=O)N2[C@H]1C(=O)O [Cyclacillin] | inactive: 1.27 |
| CCc1cccc(CC)c1NC(=O)CN(CC(=O)O)CC(=O)O [Etifenin] | active: 4.47 |
| CN/C(=N\CCSCc1nc[nH]c1C)NC#N [Cimetidine] | inactive: 1.24 |
| O=C(O)c1cc(/N=N/c2ccc(S(=O)(=O)Nc3ccccn3)cc2)ccc1O [Sulfasalazine] | inactive: 2.08 |
| Nc1ncnc2c1ncn2C1OC(COP(=O)(O)O)C(O)C1O (stereo not given) [Adenosine 5'-monophosphate monohydrate] | active: 2.63 |
| CN1CCCN(C(c2ccccc2)c2ccc(Cl)cc2)CC1 (stereo not given) [Homochlorcyclizine dihydrochloride] | inactive: 2.03 |
| C[C@@H]1C[C@H]2[C@@H]3CCC4=CC(=O)C=C[C@]4(C)[C@@]3(Cl)[C@@H](O)C[C@]2(C)[C@@]1(OC(=O)c1ccco1)C(=O)CCl [Mometasone furoate] | active: 3.88 |
| CCCCc1ccc2[nH]c(NC(=O)OC)nc2c1 [Parbendazole] | inactive: 1.34 |
| CC1(C)S[C@@H]2[C@H](NC(=O)[C@H](N)c3ccccc3)C(=O)N2[C@H]1C(=O)O [Ampicillin trihydrate] | inactive: 1.36 |
| O=c1n(CCCN2CCN(c3cccc(Cl)c3)CC2)nc2ccccn12 [Trazodone hydrochloride] | inactive: 1.43 |
| C/C=C(/C(=C/C)c1ccc(O)cc1)c1ccc(O)cc1 [Dienestrol] | inactive: 2.17 |
| O=C(O)c1ccccc1OP(=O)(O)O [Fosfosal] | inactive: 1.71 |
| COc1ccc2cc([C@H](C)C(=O)O)ccc2c1 [Naproxen] | inactive: 1.44 |
| Nc1cc(N2CCCCC2)nc(N)[n+]1[O-] [Minoxidil] | inactive: 1.17 |
| C=C(C)[C@@H]1CC[C@]2(CO)CC[C@]3(C)[C@H](CC[C@@H]4[C@@]5(C)CC[C@H](O)C(C)(C)[C@@H]5CC[C@]43C)[C@@H]12 [Betulin] | inactive: 0.725 |
| CC(=O)O[C@H]1C(=O)[C@@]2(C)[C@H]([C@H](OC(=O)c3ccccc3)[C@]3(O)C[C@H](OC(=O)[C@H](O)[C@@H](NC(=O)c4ccccc4)c4ccccc4)C(C)=C1C3(C)C)[C@]1(OC(C)=O)CO[C@@H]1C[C@@H]2O [Paclitaxel] | inactive: 1.03 |

Single values from the list:
In cell-surface Lgr5 expression, CC(N)CCCC(C)(C)O (stereo not given) [Heptaminol hydrochloride] has inactive: 1.44
In cell-surface Lgr5 expression, CC1(C)S[C@@H]2[C@H](NC(=O)C3(N)CCCCC3)C(=O)N2[C@H]1C(=O)O [Cyclacillin] has inactive: 1.27
